Among the data in a protein production outcome set (Wang et al. 2014) are protein production values, retold here.

A short description of the data set: label from the status in PepcDB records.
With “IFAEYIAIQACKEVNLDSYTREHTKDNLQSVTRGCFDLAQKRIFGLMEKDSYPRFLRSDLYLDLINQKKMSPPL”, the protein production entry is on record as “failed”.

In the case of “MAGEIQDPFSLSFQGNSIHSGSISFGRFEKEGLSWEKRSSFSHNRYLEEVDKCSKPGSVTEMKAHFEAHFKKKGIRFPASLESQTWGVHQTSNEPDDEAVHATESFEDYRSDGSFSEDTSQSNSVCNYSHEQEKCGQGKSQCEFDEESDHCVSYDEILVNSDEVIELDEEEGGGDHGRVADLVECENLGPPEMPQEIVIQDSALVEEAGSKLDEHASKKPSNSMETPSSSVNVKPIIPNDVRVTKASTKGHDVTPKAASRRTKGSSLSSNSKTNVDAKSQKELRPKKTIESQPKSSNKTETRPPIATNRCKTSTTSSKLEMSTGSTSFRFKCSERAEKRKEFYMKLEEKIHAKKTETNQVQAKTQQKAEAEIKQFRKSLNFKATPMPSFYNIGTRPVSHNKTEPSKVAQSRSRPATSASITNRAVTRVSYKHGFEEAEMVKVMVSNRKQSAAKDSDLQKGNLMAVEMKQQIGARRSRN”, the protein production result was “failed”.

On to “MAKDKDITETLLTAAEERSDLPFLSVDDIPPITTVGGFVREFNVETKKLWYLAGPAIFTSVNQYSLGAITQVFAGHISTIALAAVSVENSVVAGFSFGIMLGMGSALETLCGQAFGAGKLSMLGVYLQRSWVILNVTALILSLLYIFAAPILASIGQTAAISSAAGIFSIYMIPQIFAYAINFPTAKFLQSQSKIMVMAVISAVALVIHVPLTWFVIVKLQWGMPGLAVVLNASWCFIDMAQLVYIFSGTCGEAWSGFSWEAFHNLWSFVRLSLASAVMLCLEVWYFMAIILFAGYLKNAEISVAALSICMNILGWTAMIAIGMNTAVSVRVSNELGANHPRTAKFSLLVAVITSTLIGFIVSMILLIFRDQYPSLFVKDEKVIILVKELTPILALSIVINNVQPVLSGVAVGAGWQAVVAYVNIACYYVFGIPFGLLLGYKLNYGVMGIWCGMLTGTVVQTIVLTWMICKTNWDTEASMAEDRIREWGGEVSEIKQLIN”, for which the protein production result is listed as “failed”.

For the sequence “MAYKFRTHSPEALEQLYPWECFVFCLIIFGTFTNQIHKWSHTYFGLPRWVTLLQDWHVILPRKHHRIHHVSPHETYFCITTGVKVPRNFRLLEELEEGQKGVGDGTVSWGLEDDEDMTLTRWTGMIIGPPRTIYENRIYSLKIECGPKYPEAPPFVRFVTKINMNGVNSSNGVVDPRAISVLAKWQNSYSIKVVLQELRRLMMSKENMKLPQPPEGQCYSN”, the protein production entry was “failed”.

As to “MDLVGDRTPQLPEQVVRMKYFAMPPMTIQEALEHLEMVDHDFYVFRNRDTGEINVVYERNHGGYGVLEHHHHHH”, the protein production entry is “failed”.

With “MDPAASSCMRSLQPPAPVWGCLRNPHSEGNGASGLPHYPPTPFSFHQKPDFLATATAAYPDFSASCLAATPHSLPQEEHIFTEQHPAFPQSPNWHFPVSDARRRPNSGPAGGSKEMGTSSLGLVDTTGGPGDDYGVLGSTANETEKKSSRRRKESSDNQENRGKPEGSSKARKERTAFTKEQLRELEAEFAHHNYLTRLRRYEIAVNLDLSERQVKVWFQNRRMKWKRVKGGQPISPNGQDPEDGDSTASPSSE”, the protein production result was “not failed”.

In the case of “MDQANSVPLSADEQREARRLQYLSWERVAADLDHPAHLARKAELRRSCGAELAETSYIAENAAIFTESLTMGEWSWIAGHALVRGDVILGEHCSINPYACVSGKVTCGNGVRIASHASIVGFNHGFDDPDRPIHRQGVVSIGIIIGDDVWIGANCVILDGVTIGNGAVIAAGAVVTQDIPSLAIAGGVPAKVLRNRGAPARKSAVRDIEDQLARLGQKAKEQWPDILAHWKTSEGYESLEADGVRRPSIRHLCDAIEIAAGFGHPPPGLDPAQTLERLQGLQDRETGLFPEAHSRVEGRALRVDPKALYNVLSVGYALELLGSGPQQPIQAVQIDAPELEQWLSALPWSSRAWHAGSVVDTIGTAMYFNARHFGIRGPRQALFEWLSRNADSVSGLWGEPTALEGWLQPVNGFYRLTRGTYAQFGMPLPHPHAALEAVHLNYRNHNGFVGGQYNACNLLDTIHPLLLIARQTDYRRADGEAIARSLISRAPDRWRDGEGFPFADGGEPSLQGTEMWLSVVHLAADFLGLADQFAFVPKGVHRTATPGLGL”, the protein production result is “failed”.

For the sequence “MEMVHADVASLSITPCFPSSLSSSSHHHYNQQQHCIMSEDQHHSMDQTTSSDYFSLNIDNAQHLRSYYTSHREEDMNPNLSDYSNCNKKDTTVYRSCGHSSKASVSRGHWRPAEDTKLKELVAVYGPQNWNLIAEKLQGRSGKSCRLRWFNQLDPRINRRAFTEEEEERLMQAHRLYGNKWAMIARLFPGRTDNSVKNHWHVIMARKFREQSSSYRRRKTMVSLKPLINPNPHIFNDFDPTRLALTHLASSDHKQLMLPVPCFPGYDHENESPLMVDMFETQMMVGDYIAWTQEATTFDFLNQTGKSEIFERINEEKKPPFFDFLGLGTV”, the protein production entry is recorded as “failed”.

As to “MGDTGRTPLATARGAGRTQAGSKSPARGAPGNTGDDHSRTTHVHARKRFEQRGEGRGSHVEGDRRGPGGGKDARITCRGPELRGHVRPEAGPPRRGRGARLPAAVGGVGRRAEGACPGGGGGAILAKGGSGSADRGGGGARSGGRRLPARRPRSGAERRMQQPQPQGQQQPGPGQQLGVQGAAPGAGGGPGGGPGPGPCLRRELKLLESIFHRGHERFRIASACLDELSCEFLLAGAGGAGAGAAPGPHLPSRGSVPGDPVRIHCNITESYPAVPPIWSVESDDPNLAAVLERLVDIKKGNTLLLQHLKRIISDLCKLYNLPQHPDVEMLDQPLPAEQNSCTQEEVSSEDEDEEMPEDTEDLDHYEMKEEEPAEGKKSEDDGIGKENLAILEKIKKNQRQDYLNGAVSGSVQATDRLMKELRDIYRSQSFKGGNYAVELVNDSLYDWNVKLLKVDQDSALHNDLQILKEKEGADFILLNFSFKDNFPFDPPFVRVVSPVLSGGYVLGGGAICMELLTKQGWSSAYSIESVIMQISATLVKGKARVQFGANKSQYSLTRAQQSYKSLVQIHEKNGWYTPPKEDG”, the protein production entry was “failed”.

For the sequence “MHMDSVPPSPFPYPTPGTCGLLRLSPPPVSPRVTLAFPKVGKILRLPAQSDTVWNTLPHQLTPSSSCQPLRLLGYPPCAAVGLPLCCSEVGPGGLTQFPTQSTATSSAVGHGFQPPNPVAWSADHTRPVHTTLSSFLFSGTTQSPDLRPSVSGSGICLGSWPPSPPPNPSPALSFTPLLSTHSQWRDPAETARLARSGLFRPVIDVPESTASEQPEKGRRSRRGEEYSSPSLLPLPPTLALLRTSPSSLTAAWSGDCLRAPTRCPGSPAQRAPAPGPPRGAGASMEHLGPHHLHPGHAEPISFGIDQILNSPDQGGCMGPASRLQDGEYGLGCLVGGAYTYGGGGSAAGAGAGGTGAYGTGGPGGPGGPAGGGGGACSMGPLAGSYNVNMALAGGPGPGGGGGGAGAGGAGALSAAGVIRVPAHRPLAGAVAHPQPLATGLPTVPSVPAVPGVNNLTGLTFPWMESNRRYTKDRFTGHPYQNRTPPKKKKPRTSFTRLQICELEKRFHRQKYLASAERAALAKALKMTDAQVKTWFQNRRTKWRRQTAEEREAERQQANRILLQLQQEAFQKSLAQPLPADPLCVHNSSLFALQNLQPWSDDSTKITSVTSVASACE”, the protein production entry is recorded as “failed”.

In the case of “MKTSEERLLAPDSLPPDLAPAPVPQGSPAEKNTDFEPVPPPCGGDDQPQLATDPVASLVVSQELQQGDSVPLEVEFNTSSELSPGIEEQDVSEHASLPGEETNLPELESGEATEGVSEERAEVDEGDTFWTYSFSQVPRYLSGSWSEFSTRSENFLKGCKWAPDGSCILTNSADNVLRIYNLPPELYSEQEQVDYAEMVPVLRMVEGDTIYDYCWYSLMSSTQPDTSYVASSSRENPIHIWDAFTGELRASFRAYNHLDELTAAHSLCFSPDGSQLFCGFNRTVRVFSTSRPGRDCEVRATFAKKQGQSGIISCIAFSPSQPLYACGSYGRTIGLYAWDDGSPLALLGGHQGGITHLCFHPDGNLFFSGARKDAELLCWDLRQPGHLLWSLSREVTTNQRIYFDLDPSGQFLVSGNTSGVVSVWDISGALSDDSKLEPVVTFLPQKDCTNGVSLHPTLPLLATASGQRVFPEPTNSGDEGELELELPLLSLCHAHPECQLQLWWCGGGPDPSSPVDDQDEKGQRRTEAVGMS”, the protein production entry is given as “failed”.

For the sequence “MNETLYCSFCKKPESRDPKKRRIIFASNLNKDVCVCEYCIDVMHGELHKYDNSLLALKRDRLRRMESSAYEEEFLLSYIPAPKELKAVLDNYVIGQEQAKKVFSVAVYNHYKRLSFKEKLKKQDNQDSNVELEHLEEVELSKSNILLIGPTGSGKTLMAQTLAKHLDIPIAISDATSLTEAGYVGEDVENILTRLLQASDWNVQKAQKGIVFIDEIDKISRLSENRSITRDVSGEGVQQALLKIVEGSLVNIPPKGGRKHPEGNFIQIDTSDILFICAGAFDGLAEIIKKRTTQNVLGFTQEKMSKKEQEAILHLVQTHDLVTYGLIPELIGRLPVLSTLDSISLEAMVDILQKPKNALIKQYQQLFKMDEVDLIFEEEAIKEIAQLALERKTGARGLRAIIEDFCLDIMFDLPKLKGSEVRITKDCVLKQAEPLIIAKTHSKILP”, the protein production result is on record as “failed”.

In the case of “MPVFPAGGGPLLTGGAAVHISASGAAKATLYCRVFLLDGTEVSVDLPKHAKGQDLFDQIVYHLDLVETDYFGLQFLDSAQVTHWLDHSKPIKKQMKVGPAYALHFRVKYYSSEPNNLREEFTRYLFVLQLRHDILSGKLKCPYETAVELAALCLQAELGECELPEHTPELVSEFRFIPNQTEAMEFDIFQRWKEYRGKSPAQAELSYLNKAKWLEMYGVDMHVVRGRDGCEYSLGLTPTGILIFEGANKIGLFFWPKITKMDFKKSKLTLVVVEDDDQGREQEHTFVFRLDSARTCKHLWKCAVEHHAFFRLRTPSNSKSARSDFIRLGSRFRFSGRTEYQATHGSRLRRTSTFERKPSKRYPSRRHSTFKASNPVIAAQLCSKTNPEVHNYQPQFHPNVHPSQPRWRPHSPNVSNHSTCKQNKPSFQDDRPHWKASASGDDGHFDYVHDQNQRNLGGAYSVTYRDKLMTAL”, the protein production result is listed as “failed”.

For the sequence “MRPTSGITLGGRFQLTSRIAIGGMGEVWKAKDQILGRIVAIKVLKEEYTGDPGFLQRFRAEARHTALLNHVGIANVFDYGEEAGSAYLVMELVPGHPLSGILEREQVLSPDMTLSIISQTARALAVAHAQGLVHRDIKPGNLLITPDNRVKVTDFGIARLADQVPLTQTGQVMGTAQYLAPEQATGQTATGSSDIYSLGVIGYECLTGHRPFSGESQIAIALAQVNDAPPPLPETLPTPVRALLMSMLAKDPKNRPANAIKLAEAAEAIRNGDIATAHAAVPGMLLFESTTGPITAPVDTATAPTGVVTSPYGKEQSTTATSALPVLGAGAAGAALGAAAASDNPLTRANALEAERQLSDDEEVVYTDDENYDDAEPERKKRSPWTWPLVALILLVLFALVGFLISQSGFFSPSPAPSESTTTSASRSASPTSASATPTPRPTETSEAPQPTQSVPQKINVIPEQYQGQPFETVSAQLRALGLGVDGQEVFDDTAPVGIVTGLNPTGPVNPGETITVTYSKGPELVAVPAIAPGVDEARVQQAIEGAGLQWVAGEPVNGAIGQQPGTFVRSSPAAGSQVAAGSTVTYYLSKELVPIDPGTSTATPTGTGSPSR”, the protein production result is given as “failed”.

Regarding “MRSKGRARKLATNNECVYGNYPEIPLEEMPDADGVASTPSLNIQEPCSPATSSEAFTPKEGSPYKAPIYIPDDIPIPAEFELRESNMPGAGLGIWTKRKIEVGEKFGPYVGEQRSNLKDPSYGWEVHLPRSRRVSVHSWLYLGKRSSDVGIAFSQADVYMPGLQCAFLS”, the protein production result is recorded as “failed”.

As to “MSAAFPPSLMMMQRPLGSSTAFSIDSLIGSPPQPSPGHFVYTGYPMFMPYRPVVLPPPPPPPPALPQAALQPALPPAHPHHQIPSLPTGFCSSLAQGMALTSTLMATLPGGFSASPQHQEAAAARKFAPQPLPGGGNFDKAEALQADAEDGKGFLAKEGSLLAFSAAETVQASLVGAVRGQGKDESKVEDDPKGKEESFSLESDVDYSSDDNLTGQAAHKEEDPGHALEETPPSSGAAGSTTSTGKNRRRRTAFTSEQLLELEKEFHCKKYLSLTERSQIAHALKLSEVQVKIWFQNRRAKWKRVKAGNANSKTGEPSRNPKIVVPIPVHVSRFAIRSQHQQLEQARP”, the protein production entry was “failed”.
